In the assay the target is YfiN GGDEF domain (PA1120-E232start) (P. aeruginosa) (UniProt Q9I4L5). Briefly: crystal structure; X-ray structure of YfiN GGDEF with Mg2+ at 2.8 Å; 3 monomers in the asymmetric unit; interfaces of the crystal lattice analysed with the PISA server; both purified.

No constants are given. Whether binding was seen depends on the method and setting.

B1: YfiN GGDEF domain (PA1120-E232start) (domain or fragment, UniProt Q9I4L5 232-435)
chain: ESWQARLQDENASLAHQAHHDSLTSLPNRAFFEGRLSRALRDANEHREQLAVLFIDSDRFKEINDRLGHAAGDTVLVNIAMRIRGQLRESDLVARLGGDEFAVLLAPLASGADALRIADNIIASMQAPIRLSDGSTVSTSLTIGIALYPEHADTPAALLHDADMAMYIAKRQARGSRRLAELNDPRILQEEKEIDSATPEAPPK
Consider B1, for which the binding entry is on record as “no binding”.

The values are drawn from publication PMC7825114, “Studying GGDEF Domain in the Act: Minimize Conformational Frustration to Prevent Artefacts” (Life, 2021).
